The results in this text go back to PMC9246181.

Chains of the proteins cited; added tags and fusions are not shown. Lines headed by an entry give the natural chain unless they say otherwise; changes in a name come on top.
UniProt P51149: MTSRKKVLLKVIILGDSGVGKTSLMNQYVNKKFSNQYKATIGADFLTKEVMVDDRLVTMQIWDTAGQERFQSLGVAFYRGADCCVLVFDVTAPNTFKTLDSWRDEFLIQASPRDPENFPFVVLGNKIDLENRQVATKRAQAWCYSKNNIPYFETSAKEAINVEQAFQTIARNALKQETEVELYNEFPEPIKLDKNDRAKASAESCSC
UniProt Q9BY11: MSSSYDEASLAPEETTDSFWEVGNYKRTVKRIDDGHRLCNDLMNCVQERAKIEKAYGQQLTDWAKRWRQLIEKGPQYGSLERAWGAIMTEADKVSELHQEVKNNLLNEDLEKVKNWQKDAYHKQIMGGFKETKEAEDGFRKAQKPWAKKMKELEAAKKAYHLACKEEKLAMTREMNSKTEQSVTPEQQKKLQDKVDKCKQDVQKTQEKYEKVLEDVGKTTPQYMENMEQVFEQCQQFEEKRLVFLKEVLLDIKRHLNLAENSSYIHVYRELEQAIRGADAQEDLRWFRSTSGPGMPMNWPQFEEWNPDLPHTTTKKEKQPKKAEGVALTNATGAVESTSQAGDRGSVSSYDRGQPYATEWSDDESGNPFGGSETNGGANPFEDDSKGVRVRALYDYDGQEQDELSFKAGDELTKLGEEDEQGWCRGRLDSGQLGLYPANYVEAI

No constants are given. Whether binding was seen depends on the method and setting.

In this assay the target is Rab7 GTP-restricted mutant (Gal4BD fusion, pFBT9) (UniProt P51149). Description: two-hybrid; S. cerevisiae PJ69-4A co-transformed with Gal4BD (pFBT9) Rab7 GTP-restricted mutant and Gal4AD (pACT2) PACSIN1; growth on QDO (SC/-Leu/-Trp/-His/-Ade) plates, 3 days at 30°C.

Take “PACSIN1 (Gal4AD fusion, pACT2) (from UniProt Q9BY11 1-444)”: the binding entry was “no binding”.
